Reference: publication PMC9000958, “Sticks and Stones, a conserved cell surface ligand for the Type IIa RPTP Lar, regulates neural circuit wiring in Drosophila” (eLife, 2022)
These are yes or no findings as the source states them, for the method shown. Some results given as binding are weak or reduced against the parent protein; the word gives no strength. Tags and fused reporters may be left off the sequences shown. Blank lines part the entries; values can stand above or below the molecule they belong to.

The chains behind the UniProt entries cited, without tags or fusion partners. Residues count along the entry.
UniProt P10586, residues 30-1263: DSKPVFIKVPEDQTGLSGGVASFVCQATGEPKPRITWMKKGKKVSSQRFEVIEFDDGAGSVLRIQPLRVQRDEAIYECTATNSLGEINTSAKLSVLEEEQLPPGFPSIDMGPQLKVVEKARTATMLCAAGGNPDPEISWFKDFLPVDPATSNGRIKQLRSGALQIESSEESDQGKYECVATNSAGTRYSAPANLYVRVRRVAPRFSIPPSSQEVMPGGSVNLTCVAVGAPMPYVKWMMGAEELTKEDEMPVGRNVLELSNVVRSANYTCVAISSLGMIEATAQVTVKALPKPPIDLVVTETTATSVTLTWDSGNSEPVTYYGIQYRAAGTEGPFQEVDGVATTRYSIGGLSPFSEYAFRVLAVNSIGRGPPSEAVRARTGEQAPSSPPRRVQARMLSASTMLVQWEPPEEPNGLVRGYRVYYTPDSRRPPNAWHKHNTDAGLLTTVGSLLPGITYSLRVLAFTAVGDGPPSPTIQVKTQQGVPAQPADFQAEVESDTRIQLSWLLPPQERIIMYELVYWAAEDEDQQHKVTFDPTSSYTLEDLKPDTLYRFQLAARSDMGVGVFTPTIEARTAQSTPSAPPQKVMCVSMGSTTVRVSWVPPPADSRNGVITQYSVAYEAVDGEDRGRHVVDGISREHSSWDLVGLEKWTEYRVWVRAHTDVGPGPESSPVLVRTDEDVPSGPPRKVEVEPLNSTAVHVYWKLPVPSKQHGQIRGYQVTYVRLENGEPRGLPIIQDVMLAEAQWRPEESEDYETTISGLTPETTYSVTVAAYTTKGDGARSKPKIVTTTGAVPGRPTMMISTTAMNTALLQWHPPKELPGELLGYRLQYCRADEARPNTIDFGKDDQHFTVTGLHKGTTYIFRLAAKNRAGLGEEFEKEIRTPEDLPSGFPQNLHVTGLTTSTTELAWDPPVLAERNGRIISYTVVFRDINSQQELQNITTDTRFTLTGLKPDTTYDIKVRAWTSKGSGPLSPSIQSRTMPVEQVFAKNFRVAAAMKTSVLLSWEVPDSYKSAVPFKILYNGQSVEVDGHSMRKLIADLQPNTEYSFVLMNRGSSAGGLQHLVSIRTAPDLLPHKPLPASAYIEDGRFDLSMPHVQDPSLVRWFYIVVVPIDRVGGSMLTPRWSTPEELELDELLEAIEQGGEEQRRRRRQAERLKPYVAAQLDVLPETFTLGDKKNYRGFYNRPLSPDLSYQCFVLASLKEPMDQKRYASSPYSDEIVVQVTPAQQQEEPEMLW

Target: T1, Nephrin-Fc fusion protein (human) (UniProt O60500)
T1 sequence: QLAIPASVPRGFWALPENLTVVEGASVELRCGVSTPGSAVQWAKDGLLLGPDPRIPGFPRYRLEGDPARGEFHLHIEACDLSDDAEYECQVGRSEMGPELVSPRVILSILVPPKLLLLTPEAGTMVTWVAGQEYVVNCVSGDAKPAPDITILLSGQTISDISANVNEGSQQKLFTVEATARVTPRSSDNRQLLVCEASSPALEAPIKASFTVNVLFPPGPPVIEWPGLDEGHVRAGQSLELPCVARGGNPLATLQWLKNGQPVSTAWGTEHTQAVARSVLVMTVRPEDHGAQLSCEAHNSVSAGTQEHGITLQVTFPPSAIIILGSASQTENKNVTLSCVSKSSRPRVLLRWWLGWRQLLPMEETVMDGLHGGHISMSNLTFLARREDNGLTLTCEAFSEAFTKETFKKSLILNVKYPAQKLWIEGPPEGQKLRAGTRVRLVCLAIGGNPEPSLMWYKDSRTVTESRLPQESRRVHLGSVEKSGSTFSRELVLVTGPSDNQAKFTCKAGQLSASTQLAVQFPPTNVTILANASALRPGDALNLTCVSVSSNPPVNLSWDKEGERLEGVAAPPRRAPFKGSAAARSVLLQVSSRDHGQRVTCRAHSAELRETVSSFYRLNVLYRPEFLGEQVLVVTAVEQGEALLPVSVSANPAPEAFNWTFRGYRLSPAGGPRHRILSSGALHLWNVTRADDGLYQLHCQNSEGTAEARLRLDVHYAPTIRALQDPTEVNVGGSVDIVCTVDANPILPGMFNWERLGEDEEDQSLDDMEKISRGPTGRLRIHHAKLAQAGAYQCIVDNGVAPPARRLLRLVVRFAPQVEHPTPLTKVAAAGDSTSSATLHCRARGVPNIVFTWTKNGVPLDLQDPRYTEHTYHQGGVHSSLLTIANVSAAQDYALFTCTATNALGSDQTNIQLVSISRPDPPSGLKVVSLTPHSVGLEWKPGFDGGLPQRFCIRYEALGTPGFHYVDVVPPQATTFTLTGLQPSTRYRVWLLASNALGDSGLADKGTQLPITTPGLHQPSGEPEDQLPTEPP
Test: ELISA; ECIA: Fc fusion bait (1x supernatant) captured by anti-human IgG (Fc-specific) on plate; AP5 fusion prey (1x supernatant) pre-clustered with anti-AP:biotin, overnight at room temperature; streptavidin:HRP, TMB, absorbance at 450 nm

binding: binds
Molecule: PTPRF-AP5 fusion protein (from UniProt P10586 30-1263) (domain or fragment)

binding: binds
B1: PTPRD-AP5 fusion protein (domain or fragment, human, UniProt P23468 21-1265, looked up)
chain: ETPPRFTRTPVDQTGVSGGVASFICQATGDPRPKIVWNKKGKKVSNQRFEVIEFDDGSGSVLRIQPLRTPRDEAIYECVASNNVGEISVSTRLTVLREDQIPRGFPTIDMGPQLKVVERTRTATMLCAASGNPDPEITWFKDFLPVDTSNNNGRIKQLRSESIGGTPIRGALQIEQSEESDQGKYECVATNSAGTRYSAPANLYVRELREVRRVPPRFSIPPTNHEIMPGGSVNITCVAVGSPMPYVKWMLGAEDLTPEDDMPIGRNVLELNDVRQSANYTCVAMSTLGVIEAIAQITVKALPKPPGTPVVTESTATSITLTWDSGNPEPVSYYIIQHKPKNSEELYKEIDGVATTRYSVAGLSPYSDYEFRVVAVNNIGRGPPSEPVLTQTSEQAPSSAPRDVQARMLSSTTILVQWKEPEEPNGQIQGYRVYYTMDPTQHVNNWMKHNVADSQITTIGNLVPQKTYSVKVLAFTSIGDGPLSSDIQVITQTGVPGQPLNFKAEPESETSILLSWTPPRSDTIANYELVYKDGEHGEEQRITIEPGTSYRLQGLKPNSLYYFRLAARSPQGLGASTAEISARTMQSKPSAPPQDISCTSPSSTSILVSWQPPPVEKQNGIITEYSIKYTAVDGEDDKPHEILGIPSDTTKYLLEQLEKWTEYRITVTAHTDVGPGPESLSVLIRTNEDVPSGPPRKVEVEAVNSTSVKVSWRSPVPNKQHGQIRGYQVHYVRMENGEPKGQPMLKDVMLADAQWEFDDTTEHDMIISGLQPETSYSLTVTAYTTKGDGARSKPKLVSTTGAVPGKPRLVINHTQMNTALIQWHPPVDTFGPLQGYRLKFGRKDMEPLTTLEFSEKEDHFTATDIHKGASYVFRLSARNKVGFGEEMVKEISIPEEVPTGFPQNLHSEGTTSTSVQLSWQPPVLAERNGIITKYTLLYRDINIPLLPMEQLIVPADTTMTLTGLKPDTTYDVKVRAHTSKGPGPYSPSVQFRTLPVDQVFAKNFHVKAVMKTSVLLSWEIPENYNSAMPFKILYDDGKMVEEVDGRATQKLIVNLKPEKSYSFVLTNRGNSAGGLQHRVTAKTAPDVLRTKPAFIGKTNLDGMITVQLPEVPANENIKGYYIIIVPLKKSRGKFIKPWESPDEMELDELLKEISRKRRSIRYGREVELKPYIAAHFDVLPTEFTLGDDKHYGGFTNKQLQSGQEYVFFVLAVMEHAESKMYATSPYSDPVVSMDLDPQPITDEEE
notes: human PTPRD extracellular domain, amplified from a full-length cDNA; also called PTPδ; source: Drosophila S2 cells, transfected, supernatant
